For this experiment, the system named is CD2F1 mice, L1210 leukemia ip, survival T/C. As to the kind of experiment: NCI In Vivo Anticancer Drug Screen. Data for tumor model L1210 Leukemia (intraperitoneal) in CD2F1 (CDF1) mice. The settings on record: higher T/C = longer survival. Put shortly:
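Compound-dosed mice with transplantable tumor versus matched vehicle controls; endpoint ratio T/C reported.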

Setting [1] is: T/C endpoint: mean survival time, dose: 200.0 mg/kg/injection, schedule: Q01DX009 (ip), vehicle: saline with Tween-80.
[2] abbreviates: T/C endpoint: mean survival time, dose: 200.0 mg/kg/injection, schedule: Q01DX009 (ip), vehicle: saline.
[3] abbreviates: T/C endpoint: mean survival time, dose: 400.0 mg/kg/injection, schedule: Q01DX009 (ip), vehicle: saline with Tween-80.
Where [4] appears, read: T/C endpoint: mean survival time, dose: 400.0 mg/kg/injection, schedule: Q04DX003 (ip), vehicle: saline.
Setting [5] is: T/C endpoint: mean survival time, dose: 400.0 mg/kg/injection, schedule: Q04DX003 (ip), vehicle: saline with Tween-80.
The mark [6] stands for this setting: T/C endpoint: mean survival time, dose: 300.0 mg/kg/injection, schedule: Q01DX001 (ip), vehicle: saline.

From PubChem BioAssay AID256 (DTP/NCI, 2004) come the findings set out here.

The structures appear in SMILES notation. The list is a part of this screen's results and no random one: it is rich in T/C values a quarter to a half above the control, in often repeated tests (any T/C) and in doses without a T/C. Other doses and runs of a compound stand elsewhere. T/C gives the treated animals as a percentage of the vehicle group. Some entries give survivors of the animals treated and no T/C: the source files T/C as zero there, which appears to mark a toxic dose or a test without result, not a measured value. Some doses without a T/C left all or most animals alive at the check, yet need not have been tolerated: survival well below the control is almost never listed, so the zero probably covers shortened survival too. Counts of survivors are from the toxicity check (mostly the fifth day) where no day follows; animals may have died later. Schedule codes are those of the source, taken here to give the interval after Q, in days (D) or hours (H), and the number of doses after X. Some structures stand for samples that the source files as different forms (salt, stereo form or complex); doses refer to the form tested. Where survival is the endpoint, this PubChem deposit counts one and a half times the control or more as active, and values a quarter to a half above the control carry no call in these data; other NCI protocols may use other cut-offs. Marks such as (2×) give the number of equal values in this list. Some doses were run more than once; the results are listed from low to high. Some schedules carry Z or #; the key to these is not given.

`NC(=S)N/N=C/c1ccc(O)cn1`: the T/C is, setting by setting: (T/C endpoint: mean survival time, dose: 9.4 mg/kg/injection, schedule: Q01DX009 (ip), vehicle: saline with Tween-80, evaluated on day 30) 129 % of control (2×); (T/C endpoint: mean survival time, dose: 9.4 mg/kg/injection, schedule: Q01DX009 (ip), vehicle: saline with Tween-80, evaluated on day 60) 137 % of control; (T/C endpoint: mean survival time, dose: 12.5 mg/kg/injection, schedule: Q01DX009 (ip), vehicle: saline) 126 and 147 % of control; (T/C endpoint: mean survival time, dose: 18.8 mg/kg/injection, schedule: Q01DX009 (ip), vehicle: saline with Tween-80) 140 and 147 % of control; (T/C endpoint: mean survival time, dose: 25.0 mg/kg/injection, schedule: Q01DX009 (ip), vehicle: saline) 134 % of control; (T/C endpoint: mean survival time, dose: 37.5 mg/kg/injection, schedule: Q01DX009 (ip), vehicle: saline with Tween-80) 147 % of control. For the same compound, the T/C reads like this: (T/C endpoint: mean survival time, dose: 50.0 mg/kg/injection, schedule: Q01DX009 (ip), vehicle: saline) 146 % of control; (T/C endpoint: median survival time, dose: 10.0 mg/kg/injection, schedule: Q03HX024 (ip), vehicle: saline) 128 % of control; (T/C endpoint: median survival time, dose: 11.25 mg/kg/injection, schedule: Q03HX024 (ip), vehicle: suspension in saline) 135 % of control; (T/C endpoint: median survival time, dose: 72.5 mg/kg/injection, schedule: Q03HX008 (ip), vehicle: suspension in saline) 132 % of control; (T/C endpoint: median survival time, dose: 90.0 mg/kg/injection, schedule: Q03HX024 (ip), vehicle: suspension in saline) 146 % of control; (T/C endpoint: median survival time, dose: 108.3 mg/kg/injection, schedule: Q04DX003 (ip), vehicle: suspension in saline) 144 % of control. Further, the T/C (T/C endpoint: median survival time, dose: 180.0 mg/kg/injection, schedule: Q04DX003 (ip), vehicle: suspension in saline) was 134 % of control. Besides, the survivor count was 6 of 6 (T/C endpoint: mean survival time, dose: 150.0 mg/kg/injection, schedule: Q01DX009 (ip), vehicle: saline with Tween-80); 6 of 10 under setting [1]; 6 of 6 under setting [2]; 3 of 10 under setting [3]; 5 of 6 (T/C endpoint: mean survival time, dose: 400.0 mg/kg/injection, schedule: Q01DX009 (ip), vehicle: saline).
Consider `CCCC(O)C(N)CC` (configuration not stated), for which the survivor count (T/C endpoint: mean survival time, dose: 400.0 mg/kg/injection, schedule: Q01DX001 (ip), vehicle: saline) is on record as 1 of 3.
Take `C=C(NC(=O)C(=C)NC(=O)c1csc(C2=NC3c4csc(n4)C4NC(=O)c5csc(n5)C(C(C)(O)C(C)O)NC(=O)C5CSC(=N5)/C(=C/C)NC(=O)C(C(C)O)NC(=O)c5csc(n5)C3(CC2)NC(=O)C(C)NC(=O)C(=C)NC(=O)C(C)NC(=O)C(C(C)CC)NC2C=Cc3c(C(C)O)cc(nc3C2O)C(=O)OC4C)n1)C(N)=O` (configuration not stated): the T/C runs as follows: (T/C endpoint: mean survival time, dose: 178.0 mg/kg/injection, schedule: Q04DX003 (ip), vehicle: saline) 134 % of control; (T/C endpoint: mean survival time, dose: 266.0 mg/kg/injection, schedule: Q04DX003 (ip), vehicle: saline) 126 % of control; under setting [4], 134 % of control.
In the case of `CCCCCCCCCCCCCCCC(=O)OCC1OC(N2C=CC(=O)CC2=O)C(O)C1O` (configuration not stated), the T/C is 132 % of control (T/C endpoint: median survival time, dose: 6.0 mg/kg/injection, schedule: Q01DX009 (ip), vehicle: saline + alcohol) and 149 % of control (T/C endpoint: median survival time, dose: 9.0 mg/kg/injection, schedule: Q01DX009 (ip), vehicle: saline + alcohol).
Take `Cc1ccc(C(=O)Nc2ncn(C3CC(O)C(CO)O3)c(=O)n2)cc1` (configuration not stated): the T/C (T/C endpoint: mean survival time, dose: 25.0 mg/kg/injection, schedule: Q01DX005 (ip), vehicle: saline with Tween-80) is 128 % of control. For the same compound, where the note is “T/C endpoint: mean survival time, dose: 100.0 mg/kg/injection, schedule: Q01DX005 (ip), vehicle: saline with Tween-80”, the survivor count was 6 of 6.
`Cc1ccc(C(C)C)c(OCCN)c1`: the survivor count is, setting by setting: (T/C endpoint: mean survival time, dose: 200.0 mg/kg/injection, schedule: Q04DX002 (ip), vehicle: saline) 0 of 3; (T/C endpoint: mean survival time, dose: 400.0 mg/kg/injection, schedule: Q04DX002 (ip), vehicle: saline) 0 of 3.
As to `O=C(O)C1C2CC(C1C(=O)O)C(C(=O)O)C2C(=O)O` (configuration not stated), the survivor count under setting [3] is 5 of 6.
As to `COC(=O)C(Br)C1CCCCC1` (configuration not stated), the survivor count under setting [5] is listed as 3 of 6.
As to `BrCc1c2ccccc2c(CBr)c2c1ccc1ccccc12`, where the note is “T/C endpoint: mean survival time, dose: 400.0 mg/kg/injection, schedule: Q04DX002 (ip), vehicle: Klucel (hydroxypropylcellulose) (HPC)”, the survivor count was 1 of 3.
As to `O=C(O)c1c(F)c(F)c(F)c(C(=O)O)c1F`, the survivor count was 6 of 6 (T/C endpoint: mean survival time, dose: 100.0 mg/kg/injection, schedule: Q04DX003 (ip), vehicle: saline); 3 of 6 (T/C endpoint: mean survival time, dose: 200.0 mg/kg/injection, schedule: Q04DX003 (ip), vehicle: saline with Tween-80); 0 of 6 under setting [5].
In the case of `C[N+]1=C(c2ccccc2)CCC(C(C)(C)C)C1` (configuration not stated), the survivor count under setting [6] is listed as 2 of 6.
For `O=c1[nH]c(=O)c2ncn(C3OC(CO)C(O)C3O)c2[nH]1.O=c1[nH]c(=O)c2ncn(C3OC(CO)C(O)C3O)c2[nH]1.[NH2-].[NH2-].[Pt+2]` (configuration not stated), the T/C (T/C endpoint: mean survival time, dose: 25.0 mg/kg/injection, schedule: Q04DX003 (ip), vehicle: water) is 126 % of control; the T/C (T/C endpoint: mean survival time, dose: 50.0 mg/kg/injection, schedule: Q#A X018 (ip), vehicle: water) was 128 % of control; the T/C (T/C endpoint: mean survival time, dose: 100.0 mg/kg/injection, schedule: Q#A X018 (ip), vehicle: water) was 144 % of control.
Regarding `NCCSc1ccccc1`, under setting [1], the survivor count is 0 of 6.
As for `CCCCCCCCCCSC(=N)N`, the survivor count reads like this: (T/C endpoint: mean survival time, dose: 50.0 mg/kg/injection, schedule: Q01DX001 (ip), vehicle: Klucel (hydroxypropylcellulose) (HPC)) 1 of 3; (T/C endpoint: mean survival time, dose: 100.0 mg/kg/injection, schedule: Q01DX001 (ip), vehicle: Klucel (hydroxypropylcellulose) (HPC)) 1 of 3; (T/C endpoint: mean survival time, dose: 200.0 mg/kg/injection, schedule: Q01DX001 (ip), vehicle: Klucel (hydroxypropylcellulose) (HPC)) 0 of 3.
Regarding `C=CCOCC(O)CN1CCCCC1` (configuration not stated), the survivor count under setting [2] is on record as 0 of 3.
For `O=[N+]([O-])c1ccc(Nc2cccc(Cl)c2)c([N+](=O)[O-])c1`, the survivor count is 6 of 6 (T/C endpoint: mean survival time, dose: 100.0 mg/kg/injection, schedule: Q04DX003 (ip), vehicle: saline with Tween-80) and 6 of 6 under setting [5].
Take `CCCCC1CCC(N)CC1` (configuration not stated): the survivor count is, setting by setting: (T/C endpoint: mean survival time, dose: 200.0 mg/kg/injection, schedule: Q04DX003 (ip), vehicle: saline) 0 of 6; under setting [4], 0 of 6.
`COc1cccc2c1C(=O)c1c(O)c3c(c(O)c1C2=O)CC(O)(C(C)=O)CC3OC1CC(N)C(O)C(C)O1` (configuration not stated): the T/C runs as follows: (T/C endpoint: mean survival time, dose: 5.0 mg/kg/injection, schedule: Q01DX009 (ip), vehicle: water) 126 % of control; (T/C endpoint: mean survival time, dose: 10.0 mg/kg/injection, schedule: Q01DX009 (ip), vehicle: water) 128 % of control.
`N=c1ncn(C2OC(COP(=O)(O)O)C(O)C2O)c2nc[nH]c12` (configuration not stated): the survivor count runs as follows: (T/C endpoint: mean survival time, dose: 25.0 mg/kg/injection, schedule: Q01DX005 (ip), vehicle: water) 6 of 6; (T/C endpoint: mean survival time, dose: 50.0 mg/kg/injection, schedule: Q01DX005 (ip), vehicle: water) 6 of 6; (T/C endpoint: mean survival time, dose: 90.0 mg/kg/injection, schedule: Q01DX005 (ip), vehicle: water) 3 of 3; (T/C endpoint: mean survival time, dose: 100.0 mg/kg/injection, schedule: Q01DX005 (ip), vehicle: water) 0 of 6; (T/C endpoint: mean survival time, dose: 180.0 mg/kg/injection, schedule: Q01DX005 (ip), vehicle: water) 2 of 3; (T/C endpoint: mean survival time, dose: 200.0 mg/kg/injection, schedule: Q01DX005 (ip), vehicle: water) 0 of 6.
As for `Nn1c2ccccc2c2ccccc21`, under setting [6], the survivor count is reported as 0 of 6.
Consider `NC(CCC(=O)OCc1ccccc1)C(=O)OCc1ccccc1` (configuration not stated), for which the survivor count under setting [4] was 2 of 6.
